Patent US10696623B2, “Phenolic acid derivative compound and use thereof” (DAEBONG LS, LTD, priority 2015, dated 2020)
Some results were stated once for a whole list of compounds, not compound by compound.

What was measured:
intracellular tyrosinase = target: T1, intracellular tyrosinase (Mus musculus, UniProt P11344); test: Inhibition of intracellular tyrosinase activity in α-MSH-stimulated B16F10 cells; format: cell-based; conditions: α-MSH 100 nM, 3 days, L-DOPA, absorbance 405 nm, compared with arbutin (FIG. 2)
T1 construct: Cultured B16F10 cells were detached with 0.05% trypsin-EDTA and inoculated into each well of a 24-well plate; host or cells: B16F10 mouse melanoma cells stimulated with alpha-MSH
T1 sequence (P11344 19-533): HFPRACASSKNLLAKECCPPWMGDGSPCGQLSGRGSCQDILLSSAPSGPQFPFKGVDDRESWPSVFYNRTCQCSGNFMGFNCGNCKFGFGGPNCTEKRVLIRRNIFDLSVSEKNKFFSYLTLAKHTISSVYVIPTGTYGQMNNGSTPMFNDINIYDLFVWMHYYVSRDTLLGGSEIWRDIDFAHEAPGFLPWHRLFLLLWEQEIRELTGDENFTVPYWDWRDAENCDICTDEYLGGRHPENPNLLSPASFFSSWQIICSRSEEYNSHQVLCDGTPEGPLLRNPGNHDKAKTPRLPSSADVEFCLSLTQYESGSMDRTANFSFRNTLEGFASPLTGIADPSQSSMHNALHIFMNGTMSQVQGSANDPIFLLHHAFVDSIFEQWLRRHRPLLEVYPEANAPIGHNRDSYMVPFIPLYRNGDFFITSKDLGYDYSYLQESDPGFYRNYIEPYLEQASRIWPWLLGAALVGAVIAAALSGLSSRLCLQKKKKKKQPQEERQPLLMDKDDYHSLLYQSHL

[1] = test system: B16F10 (melanoma cell line); test: Inhibition of melanogenesis in α-MSH-stimulated B16F10 cells; format: cell-based, mouse; conditions: α-MSH 100 nM, 3 days, melanin absorbance 405 nm, compared with kojic acid and arbutin (FIG. 3)

COC(=O)[C@@H](NC(=O)c1cc(OC)c(O)c(OC)c1)[C@@H](C)O [Example 5, (2S,3R)-methyl-3-hydroxy-2-(4-hydroxy-3,5-dimethoxybenzoylthio)butanoate]
inhibitory effect on intracellular tyrosinase activity (intracellular tyrosinase): better inhibitory effects on tyrosinase activity than arbutin | inhibitory effect on melanogenesis [1]: better inhibitory effects on melanogenesis than arbutin

CCOC(=O)[C@H](Cc1ccccc1)NC(=O)c1cc(O)c(O)c(O)c1 [Example 1, (S)-ethyl-3-phenyl-2-(3,4,5-trihydroxybenzamido)propanoate]
inhibitory effect on intracellular tyrosinase activity (intracellular tyrosinase): better inhibitory effects on tyrosinase activity than arbutin | inhibitory effect on melanogenesis [1]: better inhibitory effects on melanogenesis than arbutin

COC(=O)[C@H](CSC(=O)c1cc(OC)c(O)c(OC)c1)NC(C)=O [Example 3, (R)-methyl-2-acetoamido-3-(4-hydroxy-3,5-dimethoxybenzoylthio)propanoate]
inhibitory effect on intracellular tyrosinase activity (intracellular tyrosinase): better inhibitory effects on tyrosinase activity than arbutin | inhibitory effect on melanogenesis [1]: better inhibitory effects on melanogenesis than arbutin

COC(=O)[C@H](CO)NC(=O)c1cc(OC)c(O)c(OC)c1 [Example 4, (S)-methyl-3-hydroxy-2-(4-hydroxy-3,5-dimethoxybenzoylthio)propanoate]
inhibitory effect on intracellular tyrosinase activity (intracellular tyrosinase): better inhibitory effects on tyrosinase activity than arbutin | inhibitory effect on melanogenesis [1]: better inhibitory effects on melanogenesis than arbutin

CCOC(=O)[C@@H](N)CSC(=O)c1cc(OC)c(O)c(OC)c1 [Example 2, (R)-ethyl-2-amino-3-(4-hydroxy-3,5-dimethoxybenzoylthio)propanoate]
inhibitory effect on intracellular tyrosinase activity (intracellular tyrosinase): better inhibitory effects on tyrosinase activity than arbutin | inhibitory effect on melanogenesis [1]: better inhibitory effects on melanogenesis than arbutin
